Data published in paper PMC7732823.
Read-outs that look alike come from different tables or passages of the source. Results are given in words; binding and its absence hold for the method and conditions named. In cells and extracts the contact can be indirect. Some entries that bind do so weakly or less than the wild type. Values belong to the molecule of their own block, whether it stands above or below them.

Sequences of proteins named here, by UniProt entry; tags and fusion partners are left off. A change or cut given only in a name is not applied to a line headed by its entry. Residues count along the entry.
UniProt P25490: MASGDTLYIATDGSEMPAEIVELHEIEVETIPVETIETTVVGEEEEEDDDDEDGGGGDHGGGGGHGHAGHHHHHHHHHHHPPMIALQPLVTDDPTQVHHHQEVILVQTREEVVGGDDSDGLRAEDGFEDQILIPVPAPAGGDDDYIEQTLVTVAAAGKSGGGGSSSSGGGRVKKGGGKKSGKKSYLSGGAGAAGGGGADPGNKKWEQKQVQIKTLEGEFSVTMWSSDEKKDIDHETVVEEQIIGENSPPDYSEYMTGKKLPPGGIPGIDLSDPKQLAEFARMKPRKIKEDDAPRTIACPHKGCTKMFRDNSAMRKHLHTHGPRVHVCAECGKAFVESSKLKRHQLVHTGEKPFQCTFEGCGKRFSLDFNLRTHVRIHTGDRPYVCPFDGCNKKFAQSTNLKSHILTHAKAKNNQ
UniProt Q8VIM5: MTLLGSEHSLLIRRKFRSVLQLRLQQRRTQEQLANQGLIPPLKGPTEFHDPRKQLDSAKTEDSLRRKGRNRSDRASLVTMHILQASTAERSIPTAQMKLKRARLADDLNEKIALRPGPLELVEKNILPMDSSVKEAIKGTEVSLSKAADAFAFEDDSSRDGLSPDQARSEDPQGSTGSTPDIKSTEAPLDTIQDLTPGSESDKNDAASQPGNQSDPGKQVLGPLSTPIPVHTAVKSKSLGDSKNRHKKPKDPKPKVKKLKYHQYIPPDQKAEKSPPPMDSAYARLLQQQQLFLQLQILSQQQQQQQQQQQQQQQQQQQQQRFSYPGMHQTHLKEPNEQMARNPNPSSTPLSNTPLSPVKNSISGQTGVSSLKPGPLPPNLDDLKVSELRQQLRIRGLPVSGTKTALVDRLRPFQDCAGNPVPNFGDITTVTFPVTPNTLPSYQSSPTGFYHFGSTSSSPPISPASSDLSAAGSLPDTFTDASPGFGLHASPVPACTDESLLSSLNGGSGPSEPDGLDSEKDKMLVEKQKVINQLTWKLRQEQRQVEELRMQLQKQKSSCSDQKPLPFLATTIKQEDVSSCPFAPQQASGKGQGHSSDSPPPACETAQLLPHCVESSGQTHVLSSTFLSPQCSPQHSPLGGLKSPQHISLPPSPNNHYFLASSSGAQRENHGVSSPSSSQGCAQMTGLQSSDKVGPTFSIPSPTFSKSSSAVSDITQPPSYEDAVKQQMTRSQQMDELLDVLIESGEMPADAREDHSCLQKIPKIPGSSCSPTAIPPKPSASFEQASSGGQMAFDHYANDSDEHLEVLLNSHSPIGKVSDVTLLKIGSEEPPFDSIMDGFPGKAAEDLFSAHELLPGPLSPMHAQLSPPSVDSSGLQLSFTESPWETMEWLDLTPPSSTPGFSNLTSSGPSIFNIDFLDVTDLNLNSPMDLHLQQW
MYOCD(1–350)-GST: residues 1-350 of Q8VIM5
MYOCD-truncation GST fusion protein (1–220): residues 1-220 of Q8VIM5
MYOCD-truncation GST fusion protein (221–350): residues 221-350 of Q8VIM5

Tests used:
GST-YY1 = GST-YY1 (UniProt P25490); assay: pull-down; GST fusion protein or GST on glutathione-agarose beads incubated for 2 h with bacterially expressed T7 fusion protein in PBS with 1% Triton X-100, 1 mg/ml BSA and protease inhibitors; washed 3 times; Western blot with anti-T7
[1] = biological target: MYOCD-truncation GST fusion protein (1–220) (UniProt Q8VIM5); assay: as above
[2] = biological target: MYOCD-truncation GST fusion protein (221–350) (UniProt Q8VIM5); assay: as above
MYOCD(1–350)-GST [3] = biological target: MYOCD(1–350)-GST (UniProt Q8VIM5); assay: pull-down; competitive GST pull-down: MYOCD(1-350)-GST on glutathione-agarose beads with T7-YY1 and increasing amounts of T7-SRF(1-222); PBS with 1% Triton X-100, 1 mg/ml BSA; Western blot with YY1 or SRF antibodies
MYOCD(1–350)-GST [4] = biological target: MYOCD(1–350)-GST (UniProt Q8VIM5); assay: as above; remark: listed apart in the source

binding (GST-YY1): binds
Molecule: T7 tagged full-length MYOCD (from UniProt Q8VIM5 1-935)

binding [1]: binds | binding [2]: binds | binding (MYOCD(1–350)-GST [3]): binds
Molecule: T7-tagged YY1 (from UniProt P25490 1-414)

binding (MYOCD(1–350)-GST [4]): binds
B1: T7-SRF(1-222aa) (domain or fragment, UniProt P11831 1-222)
chain: MLPTQAGAAAALGRGSALGGSLNRTPTGRPGGGGGTRGANGGRVPGNGAGLGPGRLEREAAAAAATTPAPTAGALYSGSEGDSESGEEEELGAERRGLKRSLSEMEIGMVVGGPEASAAATGGYGPVSGAVSGAKPGKKTRGRVKIKMEFIDNKLRRYTTFSKRKTGIMKKAYELSTLTGTQVLLLVASETGHVYTFATRKLQPMITSETGKALIQTCLNSP
